These results are taken from publication PMC6520443, “Molecular Fingerprints for a Novel Enzyme Family in Actinobacteria with Glucosamine Kinase Activity” (mBio, 2019).

This experiment addresses Streptacidiphilus jiangxiensis glucosamine kinase (SjGlcNK) (Streptacidiphilus jiangxiensis). As to the kind of experiment: SAXS; SjGlcNK in solution, with and without ligands (GlcN, glucose, ATP); profiles extrapolated to infinite dilution; both purified.

Results are given in words; binding and its absence hold for the method and conditions named. Tags and fused reporters may be left off the sequences shown.

B1: Streptacidiphilus jiangxiensis glucosamine kinase (SjGlcNK) (enzyme, UniProt A0A1H7TQR5 1-438)
chain: MTPNWSELVAAADPALVLPSGERRAEVAVPGPLRLDALLDLGEGHAVGVVRSADAARWTVPLVRDGAGGVRRSRPGDGTAEHLVAALARRGATPDAAFVLEAFTGAAPVTGERGIIVDQTNESVIVGECAVVKWAVRLPAEGEPGSPAAQRIAALARGGFTEMPRPWGLLTLAEGAQPVLLASVVAYLPGALDGWDWAVDDVRRLARGELTMDQALLPAAQLGTLTARMHAALAARGRTPATAADVAAWGVRMREELDEAVASVPGAEGERLKAWAPRIADVYAELDALAGTPLIDVHGDFHVGQILRADGRYAVVDFDGNPVLPADQRAARQPAALDVVGMTASLDHVGRVVVFRTPDVDPAPVRAWIAAAQRSFLDAYRTTLARLDADDLFDDRLLTPLRYAQEVREYLYAVRHLPHWVYVPDLSLTDLLPERLKD
For B1, the binding entry is “no binding”.
